According to patent publication US20190008957A1, “COMBINATION THERAPIES INCLUDING INHIBITORS OF THE EXTRACELLULAR DOMAIN OF E-CADHERIN” (The Research Foundation for The State of New York, priority 2012, published 2019):
For at least one compound, name, drawing or mass did not settle the structure.

How the values were obtained:
[1] = tested on: MEK1/2, ERK1/2, PI3K, Akt, mTOR, p70S6K, 4EBP1; test: Western blot of downstream MAPK-PI3K/Akt/mTOR signaling in SCC cell lines; assay type: cell-based; settings: PAM212 cells; inhibitor 20 μM
[2] = tested on: oropharyngeal FADU and skin SCC (PAM212, CC4A, SCC13 and SCC12b) cell lines; test: Proliferation in oropharyngeal and skin SCC cell lines; assay type: cell-based; settings: PAM212 cells; inhibitor 20 μM
Description: (§1) For BrdU staining, cells were incubated with 10 μM BrdU for 2 h prior to fixation and processed for immunofluorescence microscopy as previously described (Brouxhon et al., Cancer Res. 67:7654-64, 2007). For BrdU analyses, cells were counted from 6 low-power fields (×100) per section. BrdU incorporation was also analyzed by a cell proliferation ELISA 5-bromo-2′-deoxyuridine (BrdU) (colorimetric) kit (Roche, Stockholm, Sweden), according to the manufacturer's instructions. Migration and invasion of cells were measured using 8.0 μm pore BD BioCoat Control Insert 24-well plates (no. 354578) and Matrigel Invasion Chamber 24-well Plates (no. 354480), respectively (BD Bioscience). Cells were collected, washed, and 2×10^5 cells were plated in 0.4% FBS medium in the top chamber, with 0-20 μg/mL of rhEcad/Fc in the bottom chamber. After 22 h, cells on the top were removed using a cotton swab. Migrated or invaded cells on the lower surface were fixed with methanol, stained with 0.5% crystal violet, examined by bright field microscopy and photographed. Migration or invasion was quantitated by counting migrated or invaded cells in at least ten random high-power fields per insert and expressed as averages. Results are presented as fold change of the number of migrated/invaded cells to the untreated controls in triplicate experiments.

[3] = tested on: skin (PAM212, CC4A, SCC12b, SCC13) and oropharyngeal (FADU) cells; test: Transwell migration of SCC cells; assay type: cell-based; settings: PI3K or MEK inhibitor 20 μM
Description: as §1

[4] = tested on: skin (SCC12b, SCC13, PAM212 and CC4A) and the head & neck FADU cell line; test: Matrigel invasion of SCC cells; assay type: cell-based; settings: PI3K or MEK inhibitor 20 μM
MMP-2 and MMP-9 = test: MMP-9 ELISA and gelatin zymography of conditioned media; assay type: cell-based, mouse; settings: PAM212 cells; inhibitors either alone or in combination
Description: Conditioned media from control or sEcad treated cells were concentrated 10-fold using Centricon devices (Millipore; Bedford, Mass.) according to the manufacturer's instructions and applied to SDS-PAGE gels containing gelatin (0.1% w/v). Gels were washed twice in renaturing buffer (Invitrogen) and incubated at 37° C. for 24 h in developing buffer (Invitrogen). Gels were stained with Coomassie blue and destained with methanol:acetic acid (50:10). Zymogram is representative of triplicate experiments.
Conditioned media from human and mouse cells were analyzed for MMP-9 using human and mouse […] Quantikine ELISA Kits and mouse MMP-9 ELISA kit (R&D Systems, Minneapolis, Minn.), according to the manufacturer's specifications, respectively. For measuring mouse MMP-9, serum-free medium was added to cell cultures and cells were exposed to increasing concentrations of sEcad (rmEcad/Fc; R&D Systems) for 24 hours. The culture media were collected and concentrated using Centrifugal Ultra Filters (Millipore, Billerica, Mass.) and MMP-9 levels were measured by ELISA. Each experiment was performed in triplicate.

MAPK = settings: prostate cancer; cited from earlier work

For O=c1cc(N2CCOCC2)oc2c(-c3ccccc3)cccc12 [LY294002], the Akt/p70S6K phosphorylation [1] was “decreased”, the ERK1/2 phosphorylation [1] was “decreased” and the “sEcad-induced PAM212 proliferation” value [2] was “significant reductions in sEcad-induced PAM212 proliferation”. For the same compound, the sEcad-induced migration [3] was “blocked”, the sEcad-induced invasion [4] was “blocked” and the “sEcad-induced activation of MMP-2 and MMP-9” value (MMP-2 and MMP-9) was “significantly inhibited sEcad-induced activation of MMP-2 and MMP-9”.
In the case of CO[C@H]1C[C@@H]2CC[C@@H](C)[C@@](O)(O2)C(=O)C(=O)N2CCCC[C@H]2C(=O)O[C@H]([C@H](C)C[C@@H]2CC[C@@H](O)[C@H](OC)C2)CC(=O)[C@H](C)/C=C(\C)[C@@H](O)[C@@H](OC)C(=O)[C@H](C)C[C@H](C)/C=C/C=C/C=C/1C [rapamycin], the “MAPK activation on inhibition of mTORC1” value (MAPK) is listed as “resulted in MAPK activation through a PI3K feedback loop”.
